{"source": "paper PMC12340957", "about": "“Interactions between Lipopolysaccharide and Peptide Bacteriocin BacSp222 Influence Their Biological Activities” (ACS Infectious Diseases, 2025)", "key": {"[1]": {"assay": "Gel filtration of LPS, BacSp222 and complexes", "format": "physicochemical", "description": "Gel filtration was conducted on a Superdex 200 Increase 10/300 GL (Cytiva, Marlborough, MA, USA) column using an UltiMate 3000 HPLC apparatus (Thermo, Waltham, MA, USA). The separations were performed at room temperature in 50 mM NH4COOH pH 5.8 at a flow rate of 0.6 mL/min. The spectrophotometric detection was conducted at 215 and 280 nm, and before separations, the column was calibrated using tryptophan (204 Da), […] (75 kDa), aldolase (158 kDa), ferritin (440 kDa), and Blue Dextran 2000 (2 MDa). The following samples were separated: (1) 375 μg of LPS O55:B5 (IEC), (2) 375 μg of LPS O111:B4 (PE), (3) 75 μg of BacSp222, (4) 375 μg of LPS O55:B5 (IEC) + 75 μg BacSp222, and (5) 375 μg of LPS O111:B4 (PE) + 75 μg BacSp222. All above solutions were prepared in phosphate-buffered saline (PBS) without Ca^2+ and Mg^2+ (Gibco, Paisley, UK) and were preincubated before separation for 15 min at 37 °C. The fractions containing LPS O55:B5 alone and LPS-BacSp222 complex, visible as peaks eluting at 12.5–14 min and 12.5–16 min, both marked by arrows in Figure , were manually collected, freeze-dried, and subjected to sodium dodecyl sulfate polyacrylamide gel electrophoresis (SDS-PAGE) under reducing conditions. […]"}, "[2]": {"assay": "Isothermal titration calorimetry of BacSp222 against LPS", "format": "binding", "conditions": "ITC, 37 °C; for BacSp222 to LPS molar ratio at saturation: 93 μM BacSp222 into 48.5 μM LPS O55:B5 (IEC), mean of two titrations"}}, "note": "Ends that are not written are not given here. * marks the point of attachment. For = O=C*"}
{"substance": "For-MAGLLRFLLSKGRALYNWAKSHVGKVWEWLKSGATYEQIKEWIENALGWR [BacSp222]", "values": [{"measurement": "peptide identified in 14 min/620 kDa peak", "setting": "[1]; LPS O55:B5 (IEC) incubated with bacteriocin, SDS-PAGE, denaturing, N-terminal sequencing", "result": "unequivocally identified by N-terminal sequencing as BacSp222"}, {"measurement": "complex formation with LPS", "setting": "[1]; gel filtration, only with micellar forms of LPS", "result": "form a direct complex with LPS, but only with their micellar forms"}, {"measurement": "BacSp222 to LPS molar ratio at saturation", "setting": "[2]; 137 mM NaCl (PBS, low ionic strength)", "result": 0.5}, {"measurement": "number of association steps", "setting": "[2]; 137 mM NaCl", "result": "at least 3"}, {"measurement": "BacSp222 to LPS molar ratio at saturation", "setting": "[2]; 500 mM NaCl (high ionic strength)", "result": 0.8}, {"measurement": "number of association steps", "setting": "[2]; 500 mM NaCl", "result": "≥ 2"}, {"measurement": "BacSp222 to LPS molar ratio at which enthalpies at both ionic strengths become comparable", "setting": "[2]; 137 and 500 mM NaCl", "result": "approximately 0.15"}, {"measurement": "enthalpy of reference titration without LPS", "setting": "[2]; BacSp222 into buffer, irrespective of salt concentration", "result": "identical, near-zero enthalpies"}]}
